Measurements: PubChem BioAssay AID1584 (NINDS Approved Drug Screening Program, 2009)
The campaign covered roughly 1,000 compounds. About 15 (2%) were called active. The source calls these results inconclusive, neither active nor inactive.

Protein sequences, listed by entry. Tags and fused reporters are not part of them.
UniProt P42858, whole entry, looked up: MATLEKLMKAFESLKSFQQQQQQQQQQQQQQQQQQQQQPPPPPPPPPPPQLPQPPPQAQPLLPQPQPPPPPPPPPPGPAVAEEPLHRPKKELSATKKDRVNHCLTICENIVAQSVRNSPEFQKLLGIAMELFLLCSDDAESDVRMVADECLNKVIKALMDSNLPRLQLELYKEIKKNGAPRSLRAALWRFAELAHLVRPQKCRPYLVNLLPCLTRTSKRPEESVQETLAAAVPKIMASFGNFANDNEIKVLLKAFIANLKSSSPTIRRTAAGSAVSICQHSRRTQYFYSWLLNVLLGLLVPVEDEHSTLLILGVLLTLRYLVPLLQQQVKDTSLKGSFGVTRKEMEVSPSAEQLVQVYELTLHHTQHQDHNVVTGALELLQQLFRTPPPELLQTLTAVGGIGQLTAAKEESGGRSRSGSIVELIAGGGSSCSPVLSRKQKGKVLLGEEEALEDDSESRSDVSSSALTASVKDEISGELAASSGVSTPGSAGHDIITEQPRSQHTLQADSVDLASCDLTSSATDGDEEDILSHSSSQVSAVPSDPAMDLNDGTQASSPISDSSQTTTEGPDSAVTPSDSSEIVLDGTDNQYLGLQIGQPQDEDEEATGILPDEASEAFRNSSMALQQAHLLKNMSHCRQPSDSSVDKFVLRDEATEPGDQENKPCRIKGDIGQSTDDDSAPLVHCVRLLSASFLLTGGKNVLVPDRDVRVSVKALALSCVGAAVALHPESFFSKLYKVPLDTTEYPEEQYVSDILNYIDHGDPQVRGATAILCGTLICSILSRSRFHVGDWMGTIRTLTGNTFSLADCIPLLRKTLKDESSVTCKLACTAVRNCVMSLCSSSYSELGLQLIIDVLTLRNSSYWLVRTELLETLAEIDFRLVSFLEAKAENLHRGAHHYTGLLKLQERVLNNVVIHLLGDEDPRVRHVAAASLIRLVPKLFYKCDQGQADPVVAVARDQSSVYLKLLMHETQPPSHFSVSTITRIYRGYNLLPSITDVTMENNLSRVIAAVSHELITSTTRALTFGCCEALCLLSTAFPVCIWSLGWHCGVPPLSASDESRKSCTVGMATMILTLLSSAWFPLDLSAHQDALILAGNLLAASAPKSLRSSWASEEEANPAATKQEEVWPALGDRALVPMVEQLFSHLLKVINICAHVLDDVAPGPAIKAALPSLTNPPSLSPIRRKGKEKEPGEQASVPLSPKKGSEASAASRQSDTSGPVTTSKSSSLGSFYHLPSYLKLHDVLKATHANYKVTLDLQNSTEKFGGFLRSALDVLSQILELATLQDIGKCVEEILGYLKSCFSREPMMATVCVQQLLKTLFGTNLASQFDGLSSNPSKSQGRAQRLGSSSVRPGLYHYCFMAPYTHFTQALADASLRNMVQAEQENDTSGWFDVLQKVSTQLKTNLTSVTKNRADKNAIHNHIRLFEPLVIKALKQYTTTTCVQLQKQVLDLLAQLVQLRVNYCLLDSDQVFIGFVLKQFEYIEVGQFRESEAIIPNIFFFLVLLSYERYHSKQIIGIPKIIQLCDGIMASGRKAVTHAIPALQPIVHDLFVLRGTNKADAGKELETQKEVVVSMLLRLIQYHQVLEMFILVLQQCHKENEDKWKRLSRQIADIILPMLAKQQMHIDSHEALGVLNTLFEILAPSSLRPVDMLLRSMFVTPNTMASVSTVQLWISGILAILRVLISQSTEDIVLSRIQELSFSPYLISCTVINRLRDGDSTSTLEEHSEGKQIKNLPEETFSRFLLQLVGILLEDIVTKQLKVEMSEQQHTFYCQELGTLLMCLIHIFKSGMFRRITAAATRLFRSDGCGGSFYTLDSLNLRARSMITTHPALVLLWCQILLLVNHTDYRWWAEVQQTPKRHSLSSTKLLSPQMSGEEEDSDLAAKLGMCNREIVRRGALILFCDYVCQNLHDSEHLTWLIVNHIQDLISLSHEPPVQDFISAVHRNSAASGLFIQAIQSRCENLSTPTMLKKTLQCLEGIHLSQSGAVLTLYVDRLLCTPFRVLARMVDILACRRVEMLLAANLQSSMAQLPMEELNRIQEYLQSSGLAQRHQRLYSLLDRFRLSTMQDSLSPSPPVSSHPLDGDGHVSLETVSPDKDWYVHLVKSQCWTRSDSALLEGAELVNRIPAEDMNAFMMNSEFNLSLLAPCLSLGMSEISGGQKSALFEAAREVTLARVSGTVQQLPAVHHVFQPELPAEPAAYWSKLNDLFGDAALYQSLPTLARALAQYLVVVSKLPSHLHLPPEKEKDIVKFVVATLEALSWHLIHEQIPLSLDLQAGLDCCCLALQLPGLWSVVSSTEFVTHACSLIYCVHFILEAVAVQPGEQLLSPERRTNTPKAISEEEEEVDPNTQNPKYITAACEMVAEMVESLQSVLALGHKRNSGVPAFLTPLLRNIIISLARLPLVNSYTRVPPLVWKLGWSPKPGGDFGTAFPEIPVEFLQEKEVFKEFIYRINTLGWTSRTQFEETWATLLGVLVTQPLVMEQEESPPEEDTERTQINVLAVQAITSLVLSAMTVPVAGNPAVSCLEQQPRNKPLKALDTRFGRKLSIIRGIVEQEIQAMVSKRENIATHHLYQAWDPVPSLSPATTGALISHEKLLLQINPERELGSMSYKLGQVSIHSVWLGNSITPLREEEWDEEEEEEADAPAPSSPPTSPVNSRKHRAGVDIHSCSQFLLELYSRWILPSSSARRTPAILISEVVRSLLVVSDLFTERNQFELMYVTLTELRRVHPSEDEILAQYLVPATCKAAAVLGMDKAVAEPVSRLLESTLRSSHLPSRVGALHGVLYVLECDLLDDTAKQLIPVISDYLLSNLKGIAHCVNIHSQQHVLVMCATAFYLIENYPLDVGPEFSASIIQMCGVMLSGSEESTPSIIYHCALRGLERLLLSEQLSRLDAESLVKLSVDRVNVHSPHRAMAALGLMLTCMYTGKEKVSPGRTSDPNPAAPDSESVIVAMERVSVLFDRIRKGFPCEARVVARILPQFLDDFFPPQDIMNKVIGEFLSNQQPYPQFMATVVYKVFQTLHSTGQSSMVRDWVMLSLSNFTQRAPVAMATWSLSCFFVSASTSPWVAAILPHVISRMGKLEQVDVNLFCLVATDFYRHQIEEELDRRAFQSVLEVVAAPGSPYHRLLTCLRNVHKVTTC

Biological target: Huntingtin (Homo sapiens) (UniProt P42858)
Assay: inhibitors of mutant Htt aggregation in vitro, dose response, QA1 (AID 1584)
Settings: in vitro mutant huntingtin aggregation assay; at 100 µM

Compound	aggregation ratio
CN(CCCl)CCCl	inconclusive: 1.04
